# PubChem BioAssay AID1259254 – NCATS, 2017
# Purpose: 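Finding genes that stop cells copying their DNA twice in one cycle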 (primary screen)
# System: human HCT116 colorectal cancer cells
# Knock-down reagent: single siRNA against human genes
# Timing: 3 days
# Measured: 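Nuclei stained with Hoechst and imaged; cell-cycle phase assigned by DNA content; G2 share scaled per plate, non-targeting siRNA 0%, GMNN siRNA 100%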
# Scale: G2 robust z-score and G2 cells, % of GMNN control: higher = more G2 cells, more excess DNA replication; raw share of cells in G2: higher = larger share of cells with G2 DNA content
# Hit rule: 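Active siRNAs have a G2 robust z of 5 or more median absolute deviations over the median, which in these data means about 38% or higher of GMNN control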
# In all, the deposit lists about 59,000 reagents; this is a part drawn at random. Of all reagents, about 1,550 (2.6%) got an active call. 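G2 share is only a proxy for re-replication; each gene was hit by three separate siRNAs, and active genes were retested.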 The raw values are shown without normalisation. A number with no mark means an inactive call. The numbers tell different reagents against one gene apart. Not given: the amount of reagent.
gene knocked down,reagent no.,G2 robust z-score,"G2 cells, % of GMNN control",raw share of cells in G2 (%)
FAM76B,1,0.262,4.81,5.44
FAM76B,2,-0.632,-1.48,2.46
FAM76B,3,-0.366,0.392,3.2
MET,1,-1.36,-6.58,3.44
MET,2,-0.599,-1.25,4.99
MET,3,-0.942,-3.66,2.73
SH3BP2,1,-0.619,-1.38,4.38
SH3BP2,2,-0.576,-1.09,3.79
SH3BP2,3,-0.866,-3.13,2.22
A4GNT,1,0.0928,3.62,5.58
A4GNT,2,-0.327,0.67,6.26
A4GNT,3,0.588,7.1,6.52
PPY,1,-0.587,-1.16,4.24
PPY,2,-0.628,-1.45,4.48
PPY,3,8.1 (active),60,24.1
LOC646034 (retired record),1,-0.483,-0.428,3.07
LOC646034 (retired record),2,2.52,20.7,9.61
LOC646034 (retired record),3,0.404,5.81,5.97
PIANP,1,1,10,5.93
PIANP,2,3.31,26.3,13
PIANP,3,0.916,9.41,6.11
FKBP1A,1,0.472,6.29,5.9
FKBP1A,2,5.26 (active),40,20.5
FKBP1A,3,-0.0775,2.42,6.12
MCM8,1,-0.37,0.364,4.92
MCM8,2,5.18 (active),39.4,21.9
MCM8,3,-0.389,0.233,4.28
ZNF358,1,-0.863,-3.11,2.44
ZNF358,2,5.53 (active),41.9,17.5
ZNF358,3,2.38,19.7,10
C22orf46P,1,-1.57,-8.05,0.175
C22orf46P,2,1.21,11.4,9.2
C22orf46P,3,1.24,11.7,9.41
ANKRD33,1,-0.633,-1.49,3.59
ANKRD33,2,2.7,21.9,11.5
ANKRD33,3,-0.112,2.18,4.21
ZWILCH,1,-0.323,0.697,4.79
ZWILCH,2,0.113,3.76,5.7
ZWILCH,3,-0.444,-0.159,3.09
ZNF625,1,2.33,19.4,9.75
ZNF625,2,-0.184,1.67,3.75
ZNF625,3,0.495,6.45,5.79
SLC41A3,1,-1.33,-6.36,1.33
SLC41A3,2,-0.508,-0.607,4.02
SLC41A3,3,5.18 (active),39.4,16.2
ARMC12,1,-1.01,-4.17,2.07
ARMC12,2,4.92,37.6,16
ARMC12,3,1.16,11.1,6.75
CLASP1,1,-0.543,-0.851,6.03
CLASP1,2,2.93,23.6,12
CLASP1,3,6.3 (active),47.3,20.1
RBX1,1,5.24 (active),39.9,16.8
RBX1,2,2.65,21.6,13.5
RBX1,3,8.33 (active),61.6,28.5
USP34,1,-0.507,-0.599,5.35
USP34,2,1.73,15.1,10.3
USP34,3,-0.367,0.388,4.05
UMAD1,1,4.31,33.3,15.3
UMAD1,2,-0.235,1.31,4.61
UMAD1,3,0.00428,3,4.23
TRIM5,1,-0.86,-3.08,4.24
TRIM5,2,-1.05,-4.41,3.07
TRIM5,3,0.484,6.38,6.89
NEGR1,1,-0.363,0.412,4.85
NEGR1,2,3.91,30.5,17.5
NEGR1,3,0.459,6.2,8.91
STX10,1,8.31 (active),61.4,33.3
STX10,2,-0.273,1.05,3.78
STX10,3,-0.324,0.69,3.76
